The supplement of paper PMC10338343
± gives the standard deviation. The list shows a part of the results, in another mix than the full data. The uncertainty is large for many entries.

What follows are sequences tested on MILI (PIWIL2) piRISC loaded with L1MC piRNA (26 nt) (assay: pre-steady-state target cleavage rate (min^-1); MIWI and MILI are mouse PIWI proteins and EfPiwi is from a freshwater sponge; tags in brackets are library labels; higher = faster piRNA-guided slicing of the target). Conditions: guide: L1MC piRNA 5'p-UAACUAAAUACUAUGCAAGCUGUAGG; auxiliary factor: 500 nM mouse GTSF1.
Procedure: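 Cleave-'n-Seq: a library of target RNAs (target site embedded in constant flanks, ACAGCATTCCGCGTTAGTGATATCCG... 5' flank; DNA-blocked outside the site) at 0.1 nM was incubated with 1 nM active mouse MILI or MIWI piRISC (synthetic 5'-monophosphorylated piRNA guide) with or without 500 nM mouse GTSF1 at 33 °C for 1 min to 16 h. Uncleaved targets were sequenced and normalised to non-target controls, and the pooled three trials were fitted to a burst-and-steady-state model to give the pre-steady-state cleavage rate (min^-1; k3 is constrained to at most 1e-4). Sequence is the target site only; target names encode pairing extent (gX:gY) and contiguous / 1-mismatch / 2-mismatch / bulge geometry. Fits with R² ≤ 0 are excluded.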

Sequence | pre-steady-state target cleavage rate
UCCUGGAUGUGCAACCAUAGUAUUUAGUAA | 0.00554 ± 0.0027
UCCUGGAUGUGGUUGCUUAGUAUUUAGUUA | 0.107 ± 0.02
UCCUGCUACAGGAUGCAUAGUAUUUAGUAA | 0.301 ± 0.044
UCCUGGAUGAGCUUGCAUAGUAAUUACAAA | 0.00275 ± 0.0058
UCCUCCUAGUCCUUGCAUAGUAUUUUCAAA | 0.0344 ± 0.013
UCCUGGAUGUGCUUGCAUAGUAUUUAGUAA | 0.246 ± 0.031
UCCUGGAUGUGCUUGCAUAGUUUUUAGAAA | 0.00144 ± 0.0083
UCCUCCUACAGCAAGCAUAGUAUUUAGUUA | 0.281 ± 0.014
UCCUGGAUGUCGAAGCAAUAGUAUUUAGUUA | 0.00151 ± 0.0067
UCCUGGUUCAGCUAGCAUAGUAUUUAGUUA | 0.239 ± 0.026
UCCUGGAUGUCGAAGCAAAGUAUUUAGUUA | 0.00206 ± 0.0046
UCCUGGAUGUCCUUGGAUAGUAUAUAGUUA | 0.165 ± 0.035

Same assay, conditions: guide: L1MC piRNA 5'p-UAACUAAAUACUAUGCAAGCUGUAGG; auxiliary factor: none (no GTSF1)

Sequence | pre-steady-state target cleavage rate
UCCUGGAUGUGCAACCAUAGUAUUUAGUAA | 0.000694 ± 0.0081
UCCUGGUACACCUUGCAUAGAAUUUAGUUA | 0.00126 ± 0.007
UCCUCCUAGAGCUUGCAUAGUAUUUACUUA | 0.00243 ± 0.0028
UCCUGGAUGUCGAAGCAUAAGUAUUUAGUUA | 0.000404 ± 0.011
UCCUGGAUGUGGUUGCUUAGUAUUUAGUUA | 0.0132 ± 0.0037
UCCUGGAUGAGCUUGCAUAGUAAUUACAAA | 0.000684 ± 0.0097
UCCUCCUAGUCCUUGCAUAGUAUUUUCAAA | 0.00162 ± 0.0039
UCCUGGAUGUGCUUGCAUAGUAUUUAGUAA | 0.00665 ± 0.0025
UCCUGGAACAGCUUGCAUUGUAUUUUCAAA | 0.000838 ± 0.0058
UCCUGCUACAGCUUGCAUAGUAAUUAGAAA | 0.00127 ± 0.0057
UCCUGGAUGUGCUUGCAUAGUUUUUAGAAA | 0.00113 ± 0.0051
UCCUGCUACACCUUGCAUAGUAUUUUCAAA | 0.00108 ± 0.006
UCCUGGUACAGCUUCCAUAGUAUUUAGUAA | 0.000963 ± 0.0078
UCCUGGAUGACCUUGCAUAGUUUUUAGUUA | 0.00306 ± 0.0033
UCCUGGUACAGCUUGCUUAGAAUUUAGUUA | 0.00372 ± 0.0043
UCCUGGUACAGCUUGCAUAGUAUUUAUUA | 0.00176 ± 0.0054
UCCUCCUACAGCAAGCAUAGUAUUUAGUUA | 0.00806 ± 0.0019
UCCUGGAUGUCGAAGCAAUAGUAUUUAGUUA | 0.000393 ± 0.011
UCCUGGAUCAGCUUGCAUAGUAAAAAGUAA | 0.00121 ± 0.0049
UCCUGGAUCACCUUGCAUAGUAUUUAGAAA | 0.001 ± 0.0053
UCCUGGUUCAGCUAGCAUAGUAUUUAGUUA | 0.0116 ± 0.0027
UCCUGGAUGUGCUACGAUAGUAUUUAGAAA | 0.000503 ± 0.0098
UCCUCCAUCAGCUUGCAUAGUAUUUAGAAA | 0.00126 ± 0.0049
UCCUGCUACAGCUUGGAUAGUAAUUAGUUA | 0.00265 ± 0.0029
UCCUGGAUGUCGAAGCAAAGUAUUUAGUUA | 0.00124 ± 0.004
UCCUGGAUGUCGAAGCAAAGAAUUUAGUUA | 0.00035 ± 0.012
UCCUGCUACAGCUUGCAUAGUUAUUUCAAA | 0.000728 ± 0.0078
UCCUCCUACAGCUAGCAUAGUAUUUUCAAA | 0.00131 ± 0.0032
UCCUGGAUGUCCUUGGAUAGUAUAUAGUUA | 0.0038 ± 0.0025
